# Measurements taken from paper PMC6819981.
# By UniProt entry, the sequences of proteins in these tests, tags left out.
# UniProt P41937: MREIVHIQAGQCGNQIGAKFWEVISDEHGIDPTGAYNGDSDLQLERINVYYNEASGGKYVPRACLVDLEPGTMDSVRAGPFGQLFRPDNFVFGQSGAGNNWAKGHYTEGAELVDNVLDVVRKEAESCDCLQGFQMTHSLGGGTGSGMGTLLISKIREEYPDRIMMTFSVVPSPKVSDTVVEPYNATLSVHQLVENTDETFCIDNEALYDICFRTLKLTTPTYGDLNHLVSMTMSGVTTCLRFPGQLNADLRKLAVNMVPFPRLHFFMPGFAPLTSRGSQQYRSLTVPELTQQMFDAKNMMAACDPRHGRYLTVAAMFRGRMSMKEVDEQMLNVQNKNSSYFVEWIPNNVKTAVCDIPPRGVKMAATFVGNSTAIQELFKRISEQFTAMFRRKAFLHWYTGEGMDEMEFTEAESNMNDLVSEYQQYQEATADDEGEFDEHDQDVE
# UniProt O17921: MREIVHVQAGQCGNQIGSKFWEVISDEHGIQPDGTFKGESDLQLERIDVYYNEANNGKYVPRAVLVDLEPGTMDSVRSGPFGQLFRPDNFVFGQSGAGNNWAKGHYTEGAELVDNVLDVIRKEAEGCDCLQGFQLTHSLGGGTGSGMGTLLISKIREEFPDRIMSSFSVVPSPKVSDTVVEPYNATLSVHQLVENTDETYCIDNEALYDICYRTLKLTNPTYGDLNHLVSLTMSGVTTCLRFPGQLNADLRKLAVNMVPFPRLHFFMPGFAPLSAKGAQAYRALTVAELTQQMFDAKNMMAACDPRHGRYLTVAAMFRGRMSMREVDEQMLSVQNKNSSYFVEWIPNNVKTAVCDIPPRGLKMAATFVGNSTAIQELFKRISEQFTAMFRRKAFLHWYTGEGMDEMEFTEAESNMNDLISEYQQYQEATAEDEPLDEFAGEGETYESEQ
# T1: DYN-1/Dynamin (C. elegans) (C. elegans (endogenous in worms)) (UniProt P39055)
# T1 sequence: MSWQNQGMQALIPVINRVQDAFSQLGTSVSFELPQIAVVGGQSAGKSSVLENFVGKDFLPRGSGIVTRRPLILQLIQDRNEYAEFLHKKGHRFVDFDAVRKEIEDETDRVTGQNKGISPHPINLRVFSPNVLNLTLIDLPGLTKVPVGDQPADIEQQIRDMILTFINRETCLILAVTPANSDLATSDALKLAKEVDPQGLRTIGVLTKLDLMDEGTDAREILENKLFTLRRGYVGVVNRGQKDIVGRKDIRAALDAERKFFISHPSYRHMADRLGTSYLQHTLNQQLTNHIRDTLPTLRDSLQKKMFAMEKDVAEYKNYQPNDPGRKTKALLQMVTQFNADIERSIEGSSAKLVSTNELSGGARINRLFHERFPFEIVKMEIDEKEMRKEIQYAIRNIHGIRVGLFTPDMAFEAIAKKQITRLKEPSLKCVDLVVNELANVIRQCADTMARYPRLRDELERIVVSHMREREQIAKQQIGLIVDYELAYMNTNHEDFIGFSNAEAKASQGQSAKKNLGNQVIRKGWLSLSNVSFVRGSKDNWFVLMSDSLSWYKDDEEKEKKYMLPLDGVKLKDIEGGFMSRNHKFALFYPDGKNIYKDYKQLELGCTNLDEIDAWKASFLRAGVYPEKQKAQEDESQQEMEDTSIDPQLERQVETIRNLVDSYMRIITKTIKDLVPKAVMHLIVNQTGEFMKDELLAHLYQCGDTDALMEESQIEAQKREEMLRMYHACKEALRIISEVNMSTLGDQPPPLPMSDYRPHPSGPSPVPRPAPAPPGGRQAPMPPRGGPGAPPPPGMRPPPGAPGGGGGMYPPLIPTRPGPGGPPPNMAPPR
# Molecular target: T1, DYN-1/Dynamin (C. elegans) (C. elegans (endogenous in worms))
# Assay: affinity purification with mass spectrometry; wild-type mixed-stage worm lysate in NETN (50 mM Tris pH 7.5, 150 mM NaCl, 1 mM EDTA, 0.5% NP-40); IP with affinity-purified polyclonal anti-DYN-1, protein A agarose, 4°C; control IP with polyclonal anti-CED-2; LC-MS/MS
row,Molecule,binding
1,Tubulin β-2 chain (C. elegans) (from UniProt P52275 1-450),binds
2,Tubulin β-4 chain (C. elegans) (from UniProt P41937 1-444),binds
3,Tubulin β-chain (C. elegans) (from UniProt O17921 1-449),binds
4,"Nucleoside diphosphate kinase (C. elegans) NDK-1 (protein, UniProt Q93576 1-153) MSNTERTFIAIKPDGVHRGLVGKIIARFEERGYKLVALKQMTASKAHLEVHYQDLKDKPFFPSLIEYMSSGPVVAMVWQGLDVVKQGRSMLGATNPLASAPGTIRGDFCIQTGRNICHGSDAVDSANREIAHWFKQEEINDYASPFINSWVYE",binds

# These are yes or no findings as the source states them, for the method shown. Binding seen in cells or lysates may run through a third protein. These calls come from enrichment with a bait or labelling near it, and not all partners need be listed.
